Data on 39 targets can be found in the supplement of paper PMC10849652.

Amino acid sequences for entries named in this document (tags omitted). A change or cut given only in a name is not applied to a line headed by its entry.
UniProt P99999: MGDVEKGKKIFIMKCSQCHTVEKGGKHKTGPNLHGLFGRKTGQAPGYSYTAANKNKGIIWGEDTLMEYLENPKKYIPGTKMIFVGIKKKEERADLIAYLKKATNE
UniProt Q9NRF8: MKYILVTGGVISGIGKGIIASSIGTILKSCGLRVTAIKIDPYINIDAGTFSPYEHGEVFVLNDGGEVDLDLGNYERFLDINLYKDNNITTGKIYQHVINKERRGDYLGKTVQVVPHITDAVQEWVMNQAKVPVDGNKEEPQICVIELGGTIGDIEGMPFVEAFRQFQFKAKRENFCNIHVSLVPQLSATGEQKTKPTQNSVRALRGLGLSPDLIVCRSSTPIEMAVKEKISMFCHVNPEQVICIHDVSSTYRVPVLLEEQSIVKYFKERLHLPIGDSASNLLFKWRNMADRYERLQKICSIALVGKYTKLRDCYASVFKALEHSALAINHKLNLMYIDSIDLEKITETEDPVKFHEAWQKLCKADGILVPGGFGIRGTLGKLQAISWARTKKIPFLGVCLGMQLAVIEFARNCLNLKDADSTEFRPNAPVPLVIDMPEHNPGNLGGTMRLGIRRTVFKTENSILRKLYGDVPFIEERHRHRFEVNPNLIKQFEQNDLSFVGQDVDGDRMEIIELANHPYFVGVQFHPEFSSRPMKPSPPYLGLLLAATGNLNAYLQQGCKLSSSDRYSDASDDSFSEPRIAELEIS
UniProt Q96HD1: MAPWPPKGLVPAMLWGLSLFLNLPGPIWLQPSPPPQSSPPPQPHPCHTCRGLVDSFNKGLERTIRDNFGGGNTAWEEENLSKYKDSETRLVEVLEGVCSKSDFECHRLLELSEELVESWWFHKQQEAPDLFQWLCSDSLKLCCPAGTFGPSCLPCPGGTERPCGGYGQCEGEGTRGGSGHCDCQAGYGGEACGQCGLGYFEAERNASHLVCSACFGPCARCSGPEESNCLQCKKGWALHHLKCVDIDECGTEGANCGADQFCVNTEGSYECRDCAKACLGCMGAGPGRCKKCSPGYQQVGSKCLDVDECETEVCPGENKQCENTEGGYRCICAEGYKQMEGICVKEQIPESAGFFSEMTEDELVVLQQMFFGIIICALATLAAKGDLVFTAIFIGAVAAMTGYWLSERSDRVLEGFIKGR
UniProt Q9Y5B0: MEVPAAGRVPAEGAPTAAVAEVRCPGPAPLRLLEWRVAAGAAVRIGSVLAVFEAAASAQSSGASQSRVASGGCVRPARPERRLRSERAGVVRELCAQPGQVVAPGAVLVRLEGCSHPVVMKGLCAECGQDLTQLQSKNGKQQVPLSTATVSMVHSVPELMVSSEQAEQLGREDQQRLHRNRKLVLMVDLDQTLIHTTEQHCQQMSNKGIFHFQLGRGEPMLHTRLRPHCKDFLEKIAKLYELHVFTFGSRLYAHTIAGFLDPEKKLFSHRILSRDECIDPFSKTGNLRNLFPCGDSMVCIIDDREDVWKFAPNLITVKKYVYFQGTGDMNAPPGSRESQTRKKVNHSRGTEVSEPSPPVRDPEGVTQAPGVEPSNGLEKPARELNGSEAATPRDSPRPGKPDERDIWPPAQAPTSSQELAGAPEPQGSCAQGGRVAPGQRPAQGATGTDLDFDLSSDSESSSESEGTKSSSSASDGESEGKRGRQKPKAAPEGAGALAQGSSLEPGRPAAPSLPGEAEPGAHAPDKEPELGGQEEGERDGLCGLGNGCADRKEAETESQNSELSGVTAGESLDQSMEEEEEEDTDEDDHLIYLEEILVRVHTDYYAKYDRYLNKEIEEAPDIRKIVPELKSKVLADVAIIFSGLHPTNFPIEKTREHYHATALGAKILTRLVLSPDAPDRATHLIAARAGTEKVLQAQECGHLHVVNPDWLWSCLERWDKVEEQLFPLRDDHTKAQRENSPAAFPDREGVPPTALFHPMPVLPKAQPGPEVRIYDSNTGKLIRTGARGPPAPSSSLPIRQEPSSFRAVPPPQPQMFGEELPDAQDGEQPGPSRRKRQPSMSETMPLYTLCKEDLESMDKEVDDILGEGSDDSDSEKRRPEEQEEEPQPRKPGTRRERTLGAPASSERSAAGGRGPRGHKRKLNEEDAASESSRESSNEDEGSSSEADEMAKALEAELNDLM
UniProt Q8WUE5: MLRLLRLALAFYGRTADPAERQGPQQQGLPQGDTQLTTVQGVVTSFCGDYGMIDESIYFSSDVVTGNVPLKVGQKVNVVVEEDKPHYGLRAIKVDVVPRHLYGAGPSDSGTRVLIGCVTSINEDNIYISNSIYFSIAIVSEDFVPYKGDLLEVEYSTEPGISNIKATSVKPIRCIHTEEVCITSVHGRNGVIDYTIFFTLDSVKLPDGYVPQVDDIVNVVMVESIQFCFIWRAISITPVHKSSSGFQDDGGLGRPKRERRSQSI
UniProt Q9NXE8: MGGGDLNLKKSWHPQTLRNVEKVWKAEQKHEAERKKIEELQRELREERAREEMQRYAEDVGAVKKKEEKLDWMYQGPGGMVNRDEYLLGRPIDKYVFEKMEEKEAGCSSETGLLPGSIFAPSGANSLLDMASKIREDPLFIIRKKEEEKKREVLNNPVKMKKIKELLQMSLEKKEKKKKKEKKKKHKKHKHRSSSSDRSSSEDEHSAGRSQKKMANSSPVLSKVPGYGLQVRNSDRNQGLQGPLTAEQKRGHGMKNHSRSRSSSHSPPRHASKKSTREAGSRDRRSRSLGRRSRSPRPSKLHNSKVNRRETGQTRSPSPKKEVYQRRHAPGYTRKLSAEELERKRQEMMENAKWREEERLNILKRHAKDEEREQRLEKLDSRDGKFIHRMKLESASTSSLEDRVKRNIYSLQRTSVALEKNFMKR
UniProt Q14894: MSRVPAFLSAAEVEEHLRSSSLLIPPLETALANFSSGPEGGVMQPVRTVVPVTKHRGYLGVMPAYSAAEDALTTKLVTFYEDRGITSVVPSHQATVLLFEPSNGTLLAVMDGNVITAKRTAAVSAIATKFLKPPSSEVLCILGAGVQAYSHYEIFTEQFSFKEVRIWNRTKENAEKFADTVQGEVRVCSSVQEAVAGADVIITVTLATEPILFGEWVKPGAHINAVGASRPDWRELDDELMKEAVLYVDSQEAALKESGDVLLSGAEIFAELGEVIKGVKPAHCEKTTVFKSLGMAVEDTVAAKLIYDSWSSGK
UniProt P02511: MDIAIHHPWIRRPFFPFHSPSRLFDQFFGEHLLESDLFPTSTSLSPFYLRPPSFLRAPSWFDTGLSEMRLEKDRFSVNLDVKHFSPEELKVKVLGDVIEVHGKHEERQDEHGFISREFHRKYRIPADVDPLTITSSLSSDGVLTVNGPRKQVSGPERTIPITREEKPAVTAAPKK
UniProt P55060: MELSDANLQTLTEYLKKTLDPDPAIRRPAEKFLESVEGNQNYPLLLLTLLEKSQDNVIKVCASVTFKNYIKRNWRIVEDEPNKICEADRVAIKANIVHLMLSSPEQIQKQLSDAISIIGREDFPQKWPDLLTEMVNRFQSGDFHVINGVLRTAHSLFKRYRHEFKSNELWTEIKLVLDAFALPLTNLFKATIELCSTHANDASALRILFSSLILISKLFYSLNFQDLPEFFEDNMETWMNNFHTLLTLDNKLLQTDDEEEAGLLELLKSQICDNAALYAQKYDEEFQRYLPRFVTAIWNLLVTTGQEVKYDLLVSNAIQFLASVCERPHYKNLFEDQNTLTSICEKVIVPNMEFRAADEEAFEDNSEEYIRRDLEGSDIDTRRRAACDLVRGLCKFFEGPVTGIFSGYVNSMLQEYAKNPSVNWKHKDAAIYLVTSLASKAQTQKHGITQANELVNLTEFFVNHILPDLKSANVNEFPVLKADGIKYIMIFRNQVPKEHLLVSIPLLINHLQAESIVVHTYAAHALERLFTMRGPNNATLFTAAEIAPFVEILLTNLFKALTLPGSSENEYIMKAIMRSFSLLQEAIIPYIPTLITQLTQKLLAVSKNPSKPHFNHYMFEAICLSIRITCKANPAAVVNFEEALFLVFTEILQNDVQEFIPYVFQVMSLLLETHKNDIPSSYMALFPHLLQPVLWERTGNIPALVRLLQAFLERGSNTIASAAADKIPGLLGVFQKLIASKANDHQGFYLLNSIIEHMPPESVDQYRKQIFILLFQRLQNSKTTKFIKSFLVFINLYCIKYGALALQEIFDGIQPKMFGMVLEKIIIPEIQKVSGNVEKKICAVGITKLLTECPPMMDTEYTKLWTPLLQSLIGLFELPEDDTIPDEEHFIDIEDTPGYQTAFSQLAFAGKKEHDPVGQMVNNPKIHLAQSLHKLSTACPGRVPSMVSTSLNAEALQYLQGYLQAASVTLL
UniProt P33240: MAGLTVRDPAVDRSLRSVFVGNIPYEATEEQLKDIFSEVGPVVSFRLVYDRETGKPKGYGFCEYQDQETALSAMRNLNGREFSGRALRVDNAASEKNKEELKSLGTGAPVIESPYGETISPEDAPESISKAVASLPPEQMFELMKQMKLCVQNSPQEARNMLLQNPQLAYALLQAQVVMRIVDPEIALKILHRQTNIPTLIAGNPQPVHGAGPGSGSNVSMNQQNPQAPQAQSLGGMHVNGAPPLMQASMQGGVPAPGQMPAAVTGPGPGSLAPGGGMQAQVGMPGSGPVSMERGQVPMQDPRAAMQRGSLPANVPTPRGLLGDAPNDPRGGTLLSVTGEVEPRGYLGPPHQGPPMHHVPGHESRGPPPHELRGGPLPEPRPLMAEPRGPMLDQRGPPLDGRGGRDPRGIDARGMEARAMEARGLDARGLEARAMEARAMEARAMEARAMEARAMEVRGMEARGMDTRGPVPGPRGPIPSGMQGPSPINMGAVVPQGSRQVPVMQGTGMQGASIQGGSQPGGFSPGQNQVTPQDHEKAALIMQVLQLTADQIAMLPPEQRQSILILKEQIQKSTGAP
UniProt Q14247: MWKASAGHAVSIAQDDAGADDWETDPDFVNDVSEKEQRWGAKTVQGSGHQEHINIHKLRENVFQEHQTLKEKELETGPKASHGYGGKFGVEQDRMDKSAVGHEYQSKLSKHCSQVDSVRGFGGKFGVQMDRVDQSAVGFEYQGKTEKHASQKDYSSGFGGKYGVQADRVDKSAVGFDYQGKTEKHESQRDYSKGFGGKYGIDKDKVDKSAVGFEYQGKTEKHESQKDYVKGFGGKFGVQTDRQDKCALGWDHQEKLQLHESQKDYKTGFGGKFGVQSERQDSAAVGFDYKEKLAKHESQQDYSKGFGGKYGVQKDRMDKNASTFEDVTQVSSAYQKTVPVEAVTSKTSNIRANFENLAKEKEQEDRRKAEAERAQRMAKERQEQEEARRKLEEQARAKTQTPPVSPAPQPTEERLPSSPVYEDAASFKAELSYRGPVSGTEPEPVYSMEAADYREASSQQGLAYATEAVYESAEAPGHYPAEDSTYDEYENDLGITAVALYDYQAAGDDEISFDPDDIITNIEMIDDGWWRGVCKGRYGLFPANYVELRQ
UniProt Q13620, whole entry, looked up: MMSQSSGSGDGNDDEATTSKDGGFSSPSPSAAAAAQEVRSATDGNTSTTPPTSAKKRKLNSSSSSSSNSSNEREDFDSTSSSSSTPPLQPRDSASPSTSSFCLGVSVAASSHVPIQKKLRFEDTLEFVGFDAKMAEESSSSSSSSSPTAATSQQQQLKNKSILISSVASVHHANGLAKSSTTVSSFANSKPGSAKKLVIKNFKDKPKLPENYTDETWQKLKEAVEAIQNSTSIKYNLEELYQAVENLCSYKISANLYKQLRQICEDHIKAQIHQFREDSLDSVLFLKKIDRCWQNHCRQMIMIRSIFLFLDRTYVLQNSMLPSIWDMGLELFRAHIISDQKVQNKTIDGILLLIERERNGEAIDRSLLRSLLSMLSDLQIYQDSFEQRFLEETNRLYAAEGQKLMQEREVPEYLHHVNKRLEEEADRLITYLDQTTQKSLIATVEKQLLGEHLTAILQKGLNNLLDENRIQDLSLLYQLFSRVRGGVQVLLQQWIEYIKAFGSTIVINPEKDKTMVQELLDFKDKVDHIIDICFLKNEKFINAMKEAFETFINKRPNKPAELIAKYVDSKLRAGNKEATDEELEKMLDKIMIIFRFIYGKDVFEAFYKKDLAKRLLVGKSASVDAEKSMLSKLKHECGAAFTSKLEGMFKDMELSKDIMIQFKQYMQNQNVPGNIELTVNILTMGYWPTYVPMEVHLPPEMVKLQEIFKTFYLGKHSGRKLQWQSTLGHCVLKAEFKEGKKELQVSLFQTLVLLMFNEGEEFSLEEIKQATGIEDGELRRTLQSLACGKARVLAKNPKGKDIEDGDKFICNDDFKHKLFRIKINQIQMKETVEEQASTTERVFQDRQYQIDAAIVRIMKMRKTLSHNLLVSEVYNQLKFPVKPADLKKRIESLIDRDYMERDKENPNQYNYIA
UniProt Q9NTM9: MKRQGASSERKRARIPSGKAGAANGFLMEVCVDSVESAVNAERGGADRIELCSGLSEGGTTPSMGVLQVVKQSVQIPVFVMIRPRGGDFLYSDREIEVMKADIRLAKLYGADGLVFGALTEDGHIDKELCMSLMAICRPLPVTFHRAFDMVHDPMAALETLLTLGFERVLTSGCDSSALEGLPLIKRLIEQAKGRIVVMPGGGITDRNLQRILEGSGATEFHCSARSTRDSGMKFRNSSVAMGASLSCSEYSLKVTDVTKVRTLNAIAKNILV

The other results are listed elsewhere or left out.

Compound in the first assay: C1=CC=C(C=C1)[C@H](COC2=CC3=C(C=C2)NC(=O)N3)NC(=O)C4=CC=CN(C4=O)CC5=CC(=C(C=C5)F)F
Description: log2 fold change, soluble protein after heating vs DMSO (PISA); higher = thermal stabilisation; K562 lysate, 10 uM; active = over 0.2 and 3.5 SD of the protein, either way, in both replicates (recomputed). Summed up: (§1)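 Thermal stability, expressed as log-two fold change relative to solvent controls, is given from duplicates. Crude K562 extract in PBS pH 7.4 with 1 mM MgCl2, at 1 mg/mL protein, was treated with 10 μM compound for 30 min and heated in aliquots for 3 min across 48°C-58°C. After pooling, adjustment to 0.5% NP-40 at 4°C and centrifugation at 21,000xg for 90 min, supernatant protein was measured by TMTpro 16plex LC-MS/MS with channel sums equalised.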
On to CYCS (UniProt P99999), for which the log2 fold change was inactive: -0.013.

For CTPS2 (UniProt Q9NRF8), the log2 fold change was inactive: -0.001.

On to CRNKL1 (UniProt Q9BZJ0), for which the log2 fold change is inactive: -0.073.

With CRELD1 isoform 2 (UniProt Q96HD1), the log2 fold change was inactive: 0.055.

Consider CTDP1 (UniProt Q9Y5B0), for which the log2 fold change was inactive: -0.034.

CRK (UniProt P46108): the log2 fold change was inactive: 0.039.

For the target CREB3L2 (UniProt Q70SY1), the log2 fold change is inactive: -0.02.

Consider CTU2 (UniProt Q2VPK5), for which the log2 fold change is inactive: 0.005.

For the target CREB1 (UniProt P16220), the log2 fold change was inactive: -0.019.

As to CT55 (UniProt Q8WUE5), the log2 fold change was inactive: 0.019.

With CWC25 (UniProt Q9NXE8), the log2 fold change is inactive: -0.177.

Regarding CUL1 (UniProt Q13616), the log2 fold change was inactive: 0.017.

For CRYM (UniProt Q14894), the log2 fold change was inactive: 0.035.

For the target CSNK1D (UniProt P48730), the log2 fold change is inactive: -0.027.

For the target CYB561 (UniProt P49447), the log2 fold change was inactive: 0.008.

With CTU1 (UniProt Q7Z7A3), the log2 fold change was inactive: 0.053.

As for CRTC1 (UniProt Q6UUV9), the log2 fold change was inactive: -0.008.

For CUL7 isoform 2 (UniProt Q14999), the log2 fold change is inactive: 0.003.

With CTC1 (UniProt Q2NKJ3), the log2 fold change was inactive: -0.052.

For CRYAB (UniProt P02511), the log2 fold change was inactive: -0.092.

On to CRKL (UniProt P46109), for which the log2 fold change is inactive: 0.022.

For the target CXorf56 (UniProt Q9H5V9), the log2 fold change is inactive: 0.016.

As to CUL3 (UniProt Q13618), the log2 fold change was inactive: -0.001.

Regarding CSE1L (UniProt P55060), the log2 fold change is inactive: -0.033.

On to CRLF3 (UniProt Q8IUI8), for which the log2 fold change was inactive: 0.022.

In the case of CUTA isoform 2 (UniProt O60888), the log2 fold change is inactive: 0.086.

Take CWF19L2 (UniProt Q2TBE0): the log2 fold change is inactive: -0.025.

As for CSRP1 (UniProt P21291), the log2 fold change is inactive: 0.01.

For CSTF2 (UniProt P33240), the log2 fold change is inactive: -0.027.

For CTTN (UniProt Q14247), the log2 fold change was inactive: 0.097.

As for CRTC2 (UniProt Q53ET0), the log2 fold change is inactive: -0.012.

In the case of CSPP1 (UniProt Q1MSJ5), the log2 fold change was inactive: -0.082.

For the target CUL4B (UniProt Q13620), the log2 fold change was inactive: 0.004.

For CSNK2A1 (UniProt P68400), the log2 fold change is inactive: -0.004.

Consider CSTF3 (UniProt Q12996), for which the log2 fold change is inactive: -0.011.

As to CTTN isoform 2 (UniProt Q14247), the log2 fold change is inactive: 0.025.

For the target CTSL (UniProt P07711), the log2 fold change was inactive: -0.004.

Turning to CTBP1 (UniProt Q13363), the log2 fold change was inactive: -0.015.

Consider CUTC (UniProt Q9NTM9), for which the log2 fold change was inactive: 0.018.

Compound in a further assay: CC1=C(SC2=C1C(=N[C@H](C3=NN=C(N32)C)CC(=O)N)C4=CC=C(C=C4)Cl)C
Described as above. Summed up:
as §1
Regarding CYCS (UniProt P99999), the log2 fold change was inactive: 0.016.

As for CTPS2 (UniProt Q9NRF8), the log2 fold change was inactive: -0.009.

With CRNKL1 (UniProt Q9BZJ0), the log2 fold change was inactive: 0.011.

For CRELD1 isoform 2 (UniProt Q96HD1), the log2 fold change was inactive: 0.006.

In the case of CTDP1 (UniProt Q9Y5B0), the log2 fold change was inactive: 0.017.

For CRK (UniProt P46108), the log2 fold change is inactive: 0.009.

On to CREB3L2 (UniProt Q70SY1), for which the log2 fold change was inactive: 0.015.

For the target CTU2 (UniProt Q2VPK5), the log2 fold change is inactive: -0.012.

With CREB1 (UniProt P16220), the log2 fold change was inactive: -0.023.

Turning to CT55 (UniProt Q8WUE5), the log2 fold change is inactive: 0.047.

For the target CWC25 (UniProt Q9NXE8), the log2 fold change was inactive: -0.151.

For CUL1 (UniProt Q13616), the log2 fold change was inactive: -0.027.

In the case of CRYM (UniProt Q14894), the log2 fold change was inactive: -0.026.

Take CSNK1D (UniProt P48730): the log2 fold change is inactive: 0.014.

In the case of CYB561 (UniProt P49447), the log2 fold change was inactive: -0.14.

In the case of CTU1 (UniProt Q7Z7A3), the log2 fold change is inactive: 0.004.

CRTC1 (UniProt Q6UUV9): the log2 fold change was inactive: 0.03.

On to CUL7 isoform 2 (UniProt Q14999), for which the log2 fold change was inactive: -0.132.

Consider CTC1 (UniProt Q2NKJ3), for which the log2 fold change is inactive: 0.062.

On to CRYAB (UniProt P02511), for which the log2 fold change is inactive: 0.085.

Consider CRKL (UniProt P46109), for which the log2 fold change was inactive: 0.006.

Turning to CXorf56 (UniProt Q9H5V9), the log2 fold change is inactive: 0.048.

Take CUL3 (UniProt Q13618): the log2 fold change is inactive: -0.001.

For CSE1L (UniProt P55060), the log2 fold change was inactive: 0.034.

In the case of CRLF3 (UniProt Q8IUI8), the log2 fold change is inactive: -0.022.

Turning to CUTA isoform 2 (UniProt O60888), the log2 fold change was inactive: 0.024.

For the target CWF19L2 (UniProt Q2TBE0), the log2 fold change is inactive: 0.022.

As to CSRP1 (UniProt P21291), the log2 fold change was inactive: 0.013.

As for CSTF2 (UniProt P33240), the log2 fold change was inactive: 0.021.

With CTTN (UniProt Q14247), the log2 fold change is inactive: -0.044.

Take CRTC2 (UniProt Q53ET0): the log2 fold change is inactive: -0.033.

As to CSPP1 (UniProt Q1MSJ5), the log2 fold change is inactive: 0.001.

In the case of CUL4B (UniProt Q13620), the log2 fold change was inactive: 0.005.

With CSNK2A1 (UniProt P68400), the log2 fold change was inactive: 0.012.

In the case of CSTF3 (UniProt Q12996), the log2 fold change was inactive: 0.015.

Regarding CTTN isoform 2 (UniProt Q14247), the log2 fold change was inactive: 0.005.

On to CTSL (UniProt P07711), for which the log2 fold change was inactive: -0.016.

On to CTBP1 (UniProt Q13363), for which the log2 fold change is inactive: 0.028.

On to CUTC (UniProt Q9NTM9), for which the log2 fold change was inactive: 0.057.
